# Measured values: PubChem BioAssay AID1347423 (Functional Genomics Laboratory (NCATS/FGL), 2020)
# The whole screen tested about 52,000 sequences, of which about 210 (0.4%) were called active.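 Rule for the calls: active = gene whose silencing raises cell survival under the drug, median off-target-corrected z-score across its silencing RNAs 2 or more; inactive = the rest.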 The list shows a part of the results.
# Test: Resistance to Poly (ADP-Ribose) Polymerase inhibitor: Gene Identification via Genome-wide siRNA Screen
# Conditions: mouse BRCA2 R2336H ES cells, olaparib, CellTiter-Glo viability; hits give high values
# Summary of the method: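 Mouse BRCA2 R2336H ES cells were reverse-transfected with siRNA (20 nM final), treated at 48 h with 500 nM olaparib, and read by CellTiter-Glo after 72 h. Scores: MAD-based z per siRNA, median per gene, seed off-target correction.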
row,Sequence,z-score
1,CCCAGGCUAUGACGAUUAUTT against Ssrp1,inactive: -0.078
2,GGCUUUUGGAAAGUGGCUUTT against 1110054N06Rik,inactive: -0.648
3,CGCCAAAAGACAUUGCUCATT against 4933404O11Rik,inactive: 1.25
4,CCUUUCUCAUGCUAUGGAGTT against 4933430F16Rik,inactive: 1.47
5,GGAUGUAUGUGCCAAGAUCTT against 3322402L07Rik,inactive: 1.44
6,GGAUAUAAAGUGGCUCUGGTT against 1700030B17Rik,inactive: -0.524
7,ACAUACCCGUGAAUGGCUCTT against Gpr40,inactive: -1.05
8,GCUGUCCUGCCGUAAUAGATT against 2010001O09Rik,inactive: 0.271
9,AAGGGAGUCCAGCAUUUCATT against A330068P14Rik,inactive: -1.16
10,CGCGGUUGGUUUAUACAUATT against 4833416I09Rik,inactive: -0.427
11,GGCUGUCUUGAUUUUGAUUTT against C3ar1,inactive: -0.0188
12,GGCUUCUGAUCUUACCUGGTT against BC003266,inactive: 0.595
13,GGGACUUUUAAACUUGAACTT against Ube2n,inactive: 0.116
14,GGAAAAGGCCAUGAAUAUATT against Mell1,inactive: -0.455
15,GCAAGAAUCCUGGCUAUAUTT against Bcap37,inactive: -2.52
16,GGUGUUCGUCAUAUGGAAUTT against 4930549C01Rik,inactive: 2.24
17,GCGGAAGUCGAAUCUGUCUTT against Aga,inactive: 0.488
18,GGAGUCAUCGAGUUUCGAGTT against Trem2,inactive: 0.272
19,GGAAGAAAACAGCGAUUUGTT against Myd116,inactive: 0.546
20,GGGAAAGGACAAAAAAAAATT against Rnf41,inactive: 0.582
21,GGCUUUGACAAUCUUUAAGTT against 1200007D18Rik,inactive: 0.464
22,GGACCAUAGAUAUUCUAGATT against BC021921,inactive: -0.601
23,GGUAUCUACCAGUACGAGATT against 9030607L17Rik,inactive: 0.127
24,GCUUAGACGACUAGACCUGTT against Slit2,inactive: -0.359
25,GGGUUUCAAAAACAAACCATT against Phtf1,inactive: -0.93
26,GGAACCUCAUGUCUCACCUTT against Vegfb,inactive: -1.38

row,Sequence,z-score
1,AUCAGUUUCCCUGAAAAGGTT against Pnma1,inactive: 0.0542
2,GGACACAACAAGUCUUAUGTT against Prg2,inactive: -0.34
3,GGAAUGAAGCCUGAACAGATT against Strc,inactive: 0.985
4,GGUACAUGGCCAUUGUCCATT against Tacr2,inactive: -0.154
5,GGAUUUGAAACAGAAAGAATT against Pde7a,inactive: 0.886
6,GGCCCAUUCAGAUCAUCCATT against V1rd6,inactive: -0.621
7,GCAGGUACUAAGGUUCCUGTT against Apobec3,inactive: 0.364
8,CCGACAGACUCACAUACUGTT against Trex1,inactive: -2.94
9,GGUUUUUAACUCAAUGUAGTT against Midn,inactive: -0.372
10,GGGAAGAGUGAGGAUACGGTT against Mrps34,inactive: 0.427
11,GGCACUGAAUUCAGUGGCUTT against Slc22a19,inactive: -0.439
12,GGAUCAAGGCUGCUGUUCCTT against Pgk1,inactive: 1.85
13,GGGAAGAGUUGGAUCGAUCTT against Shkbp1,inactive: 0.0688
14,GGCAAAGCUGCUCUUUUCUTT against Dnttip1,inactive: -0.362
15,GUACUGAGCAAGAUGCUGGTT against Sox18,inactive: -1.34
16,GGGACAUGAGGAUUUGUCUTT against Six4,inactive: 0.534
17,GGCUAAAAUAAGCAAUCUGTT against Optc,inactive: 0.143
18,GGGCAGUAAAGCUUUCUUGTT against 1700029I08Rik,inactive: 0.116
19,GGAUGUGUGUGUCUCCUCATT against A030004J04Rik,inactive: -0.452
20,GGACUCAACUUGAAGAAAATT against 0610008C08Rik,inactive: -1.03
21,CGGUACAAGCUAGACCUCATT against 0610011F06Rik,inactive: -0.562
22,CCUGCUUCUCUACAACCAUTT against Olfr1209,inactive: -0.946
23,GGGUAUCGUAUCAGAUCCCTT against 1810034K20Rik,inactive: 0.0323
24,CGAUUAUCCAGAGUGGAGCTT against Ankrd28,inactive: 0.0933
25,GGAUGACCAUGAAAGCUGUTT against C330002D13Rik,inactive: -1.27
26,GGACCUUAAACAAGUACUATT against A030007D23Rik,inactive: 0.282

# Fetched one by one from the list above (7):
row,Sequence,z-score
6,GGCCCAUUCAGAUCAUCCATT against V1rd6,inactive: -0.621
12,GGAUCAAGGCUGCUGUUCCTT against Pgk1,inactive: 1.85
20,GGACUCAACUUGAAGAAAATT against 0610008C08Rik,inactive: -1.03
2,GGACACAACAAGUCUUAUGTT against Prg2,inactive: -0.34
5,GGAUUUGAAACAGAAAGAATT against Pde7a,inactive: 0.886
26,GGACCUUAAACAAGUACUATT against A030007D23Rik,inactive: 0.282
11,GGCACUGAAUUCAGUGGCUTT against Slc22a19,inactive: -0.439

# The results go on.

row,Sequence,z-score
1,GGAAGUUCAGAACUCAGUUTT against Prei3,inactive: -0.0933
2,GCGAAGGUCCCAAAGAUGATT against 9630058J23Rik,inactive: -0.17
3,GGUUCGAAAACUCAGCAAUTT against Drd3,inactive: 1.03
4,GGAUGACAGUGACCAAAGGTT against D8Ertd82e,inactive: -0.847
5,GCGGUAUGGCAUGGUACAUTT against Oraov1,inactive: -0.192
6,GGACAUCUAUCAGUUUCUUTT against Tnfrsf21,inactive: 0.906
7,CCCAUUUAGGUUUUUCCUATT against Pde6d,inactive: 0.811
8,GGAAGAGAGCUGUCAGUGATT against Pth,inactive: -0.327
9,GGACAGUUGGCUUCCUUCATT against Adamts6,inactive: -1.57
10,CCUCUUAGAUAGCACAUUATT against Epx,inactive: -1.59
11,CCAGGAUUAUCACAGUGUCTT against Commd8,inactive: -1.11
12,GCUCUUUAGACCAGGACAGTT against Olfr103,inactive: -2.04
13,GUCACAGUACCCAAAAUGUTT against Olfr979,inactive: 0.279
14,GGAAAGCUUCUGAGUAAUGTT against Tfg,inactive: -0.527
15,GGCACACAAAAGAAUACCUTT against 5330439J01Rik,inactive: 0.861
16,GCAUGCUACGAUCUGGACUTT against LOC224833,inactive: -0.96
17,GCUUCUGAUUAACCUCCAGTT against Olfr1390,inactive: -1.69
18,GGUAUUCUAAGAAGUCUUATT against Lmcd1,inactive: -0.137
19,GGCUUGAGACUUAAAACGGTT against Lztfl1,inactive: 0.767
20,GGGUGUGUAUCUUACUAGUTT against Olfr791,inactive: 0.0919
21,GGAUGCUCUAACAGGAAGCTT against Slc26a1,inactive: -0.432
22,GCACUUUCGAGUGGAUGAATT against Hoxd1,inactive: -1.63
23,GGAUCAUUGACAGUGAAUATT against Blk,inactive: -0.585
24,GCGGAUUUACACCUUAUCUTT against 9230105K17Rik,inactive: -0.701
25,GGUUUGUCAACAUUGCUGATT against Jmjd2a,inactive: 1.06
26,GGUUAUCUCAAAACUCGACTT against 1700058C01Rik,inactive: -0.367

# Another view of some results above:
row | Sequence | z-score
22 | GCACUUUCGAGUGGAUGAATT against Hoxd1 | inactive: -1.63
23 | GGAUCAUUGACAGUGAAUATT against Blk | inactive: -0.585

# Additional entries follow.

row,Sequence,z-score
1,GGUGUCUGGUUCAUAAAGGTT against Lcn4,inactive: 0.994
2,CGAUCUCCCAGGCAAUAACTT against 1700034O15Rik,inactive: -1.14
3,GGGUUAAGAAAACUAGUGGTT against Nnat,inactive: -0.435
4,GGACAUGAUAACAUGGAUATT against Ubr1,inactive: 1.38
5,GGCUCUGUAAAGUUCGAGGTT against Kcnip1,inactive: -0.379
6,GGUAUACAAUCCUUACCGUTT against 4732474A20Rik,inactive: -0.161
7,GUCACUCUUUUUUAUGGAATT against Olfr485,inactive: 0.335
8,GGGAUCCCUUCUGGAAAAGTT against Dmrtc2,inactive: 1.01
9,GCGGAAAAAUUACUUUCUUTT against Tas2r107,inactive: -0.775
10,GCCACAUGUCAAACAAGAUTT against Tacc1,inactive: -0.247
11,GGCAAGCAGUCCAUAUUGUTT against Mapkap1,inactive: -0.824
12,GGAUAUGAUCAACGAAGUGTT against Calm1,inactive: -0.0163
13,CCGUAAACCUAAAUUAGGATT against Ripk5,inactive: 0.289
14,CCUAAAUCCUGCUAGGCGUTT against Cbln1,inactive: 0.0568
15,GGAACGUACAGGAUAAUCUTT against BC031593,inactive: -0.0657
16,UCAGUCGCAUCUCCAAAAATT against Olfr340,inactive: -1.45
17,CGUAAGUCAGUGAUGCUAUTT against Srp19,inactive: -0.616
18,GGAAGCAAGGAAAAUCAUGTT against Lpo,inactive: 2.58
19,GGACCAACAAUCCAGGAUUTT against 5830415L20Rik,inactive: -1.44
20,GCAAAGACCACACCAUACATT against Gm414,inactive: 0.803
21,GGGUCCACAUACAAUAAAGTT against 1500005A01Rik,inactive: -0.00454
22,GGAGAUCAGCUGUCUAAUGTT against Als2cr4,inactive: -2.38
23,GGGACUCGAAGCACUGUGUTT against 2810452K22Rik,inactive: -0.994
24,GGAUAACCUUGAGUAGGUGTT against Olfr906,inactive: 0.938
